Source: patent US20190133979A1, “METHOD FOR ENHANCING DELIVERY OF THERAPEUTIC DRUGS TO TREATMENT SITES” (Chang Gung University, priority 2013, published 2019)
At least one structure is not confirmed: it was looked up by name or label, or the drawing left a doubt.

System: LN229 cells
Experiment: Determination of cell-associated MNPs (MNPcell) in LN229 cells
Type: cell-based, human
Details: MNPs 100 μg/mL, 10 or 30 μM, 24 hrs, vs vehicle
Description: LN229 cells, human glioma cells, were cultured in DMEM medium; whereas HeLa cells, human cervical cancer cells, were cultured in MEM medium. Both media were supplemented with 10% fetal bovine serum (FBS) and 1% penicillin/streptomycin/amphotericin B solution. The cells were maintained in a 37° C. incubator supplied with 5% CO2 and sub-cultured every 3 to 4 days.
LN229 or HeLa cells were seeded and grown in 24-well plates. […] In some experiments, cells were equilibrated at 4° C. for 20 min, followed by an additional 2-h incubation with MNPs at 4° C. in the absence and presence of the magnet. A home-made magnetic plate with 24 pieces of cylindrical NdFeB magnet were used to provide a magnetic field of 3.4 kG at the center of each well. For the group without the magnet during incubation with MNPs, the magnetic plate was placed underneath the culture plates for 5 min after MNP administration to facilitate MNP sedimentation. The cells were then washed twice with phosphate-buffered saline (PBS) and trypsinized prior to colorimetric quantification. The cell pellet containing cell-associated MNPs (MNPcell) was treated with 10% hydrochloric acid at 55° C. for 4 h, followed by adding ammonium persulfate (1 mg/mL) and potassium thiocyanate solution (1 M). The amount of cell-associated iron was determined with VICTOR3 Multilabel Plate Reader (PerkinElmer, Waltham, Mass.) at OD490. […]

COc1cc(C(=O)O)cc(OC)c1OC [Compound 8, Trimethoxybenzoic acid]
effect on uptake of MNPs, in words (absence of magnet): none of them was effective
effect on uptake of MNPs, in words (presence of magnet): none of them was effective
